{"source": "patent US20070197606A1", "about": "“USE OF PPAR AGONISTS AS ANTI-OXIDANTS” (priority 2006, published 2007)", "test_system": "bile duct ligated rats", "assay": "Histopathologic examination of liver of bile duct ligated rats", "format": "in vivo, rat", "conditions": "BDL rats, clofibrate, over the treatment period", "note": "For at least one compound, name, drawing or mass did not settle the structure.", "data": [{"smiles": "CCOC(=O)C(C)(C)Oc1ccc(Cl)cc1", "note": "[Clofibrate]", "values": [{"measurement": "morphological changes of liver associated with bile duct ligation", "result": "not found to be improved"}]}]}
